According to publication PMC7909581:
Results are given in words; binding and its absence hold for the method and conditions named. In cells and extracts the contact can be indirect. Some entries that bind do so weakly or less than the wild type. Values belong to the substance of their own block, whether it stands above or below them.

Protein sequences, listed by entry. Tags and fused reporters are not part of them. Lines headed by an entry give the natural chain unless they say otherwise; changes in a name come on top. Chains listed by the source or under a name are the forms on record and can include a tag or linker. Residues count along the entry.
UniProt Q5S007: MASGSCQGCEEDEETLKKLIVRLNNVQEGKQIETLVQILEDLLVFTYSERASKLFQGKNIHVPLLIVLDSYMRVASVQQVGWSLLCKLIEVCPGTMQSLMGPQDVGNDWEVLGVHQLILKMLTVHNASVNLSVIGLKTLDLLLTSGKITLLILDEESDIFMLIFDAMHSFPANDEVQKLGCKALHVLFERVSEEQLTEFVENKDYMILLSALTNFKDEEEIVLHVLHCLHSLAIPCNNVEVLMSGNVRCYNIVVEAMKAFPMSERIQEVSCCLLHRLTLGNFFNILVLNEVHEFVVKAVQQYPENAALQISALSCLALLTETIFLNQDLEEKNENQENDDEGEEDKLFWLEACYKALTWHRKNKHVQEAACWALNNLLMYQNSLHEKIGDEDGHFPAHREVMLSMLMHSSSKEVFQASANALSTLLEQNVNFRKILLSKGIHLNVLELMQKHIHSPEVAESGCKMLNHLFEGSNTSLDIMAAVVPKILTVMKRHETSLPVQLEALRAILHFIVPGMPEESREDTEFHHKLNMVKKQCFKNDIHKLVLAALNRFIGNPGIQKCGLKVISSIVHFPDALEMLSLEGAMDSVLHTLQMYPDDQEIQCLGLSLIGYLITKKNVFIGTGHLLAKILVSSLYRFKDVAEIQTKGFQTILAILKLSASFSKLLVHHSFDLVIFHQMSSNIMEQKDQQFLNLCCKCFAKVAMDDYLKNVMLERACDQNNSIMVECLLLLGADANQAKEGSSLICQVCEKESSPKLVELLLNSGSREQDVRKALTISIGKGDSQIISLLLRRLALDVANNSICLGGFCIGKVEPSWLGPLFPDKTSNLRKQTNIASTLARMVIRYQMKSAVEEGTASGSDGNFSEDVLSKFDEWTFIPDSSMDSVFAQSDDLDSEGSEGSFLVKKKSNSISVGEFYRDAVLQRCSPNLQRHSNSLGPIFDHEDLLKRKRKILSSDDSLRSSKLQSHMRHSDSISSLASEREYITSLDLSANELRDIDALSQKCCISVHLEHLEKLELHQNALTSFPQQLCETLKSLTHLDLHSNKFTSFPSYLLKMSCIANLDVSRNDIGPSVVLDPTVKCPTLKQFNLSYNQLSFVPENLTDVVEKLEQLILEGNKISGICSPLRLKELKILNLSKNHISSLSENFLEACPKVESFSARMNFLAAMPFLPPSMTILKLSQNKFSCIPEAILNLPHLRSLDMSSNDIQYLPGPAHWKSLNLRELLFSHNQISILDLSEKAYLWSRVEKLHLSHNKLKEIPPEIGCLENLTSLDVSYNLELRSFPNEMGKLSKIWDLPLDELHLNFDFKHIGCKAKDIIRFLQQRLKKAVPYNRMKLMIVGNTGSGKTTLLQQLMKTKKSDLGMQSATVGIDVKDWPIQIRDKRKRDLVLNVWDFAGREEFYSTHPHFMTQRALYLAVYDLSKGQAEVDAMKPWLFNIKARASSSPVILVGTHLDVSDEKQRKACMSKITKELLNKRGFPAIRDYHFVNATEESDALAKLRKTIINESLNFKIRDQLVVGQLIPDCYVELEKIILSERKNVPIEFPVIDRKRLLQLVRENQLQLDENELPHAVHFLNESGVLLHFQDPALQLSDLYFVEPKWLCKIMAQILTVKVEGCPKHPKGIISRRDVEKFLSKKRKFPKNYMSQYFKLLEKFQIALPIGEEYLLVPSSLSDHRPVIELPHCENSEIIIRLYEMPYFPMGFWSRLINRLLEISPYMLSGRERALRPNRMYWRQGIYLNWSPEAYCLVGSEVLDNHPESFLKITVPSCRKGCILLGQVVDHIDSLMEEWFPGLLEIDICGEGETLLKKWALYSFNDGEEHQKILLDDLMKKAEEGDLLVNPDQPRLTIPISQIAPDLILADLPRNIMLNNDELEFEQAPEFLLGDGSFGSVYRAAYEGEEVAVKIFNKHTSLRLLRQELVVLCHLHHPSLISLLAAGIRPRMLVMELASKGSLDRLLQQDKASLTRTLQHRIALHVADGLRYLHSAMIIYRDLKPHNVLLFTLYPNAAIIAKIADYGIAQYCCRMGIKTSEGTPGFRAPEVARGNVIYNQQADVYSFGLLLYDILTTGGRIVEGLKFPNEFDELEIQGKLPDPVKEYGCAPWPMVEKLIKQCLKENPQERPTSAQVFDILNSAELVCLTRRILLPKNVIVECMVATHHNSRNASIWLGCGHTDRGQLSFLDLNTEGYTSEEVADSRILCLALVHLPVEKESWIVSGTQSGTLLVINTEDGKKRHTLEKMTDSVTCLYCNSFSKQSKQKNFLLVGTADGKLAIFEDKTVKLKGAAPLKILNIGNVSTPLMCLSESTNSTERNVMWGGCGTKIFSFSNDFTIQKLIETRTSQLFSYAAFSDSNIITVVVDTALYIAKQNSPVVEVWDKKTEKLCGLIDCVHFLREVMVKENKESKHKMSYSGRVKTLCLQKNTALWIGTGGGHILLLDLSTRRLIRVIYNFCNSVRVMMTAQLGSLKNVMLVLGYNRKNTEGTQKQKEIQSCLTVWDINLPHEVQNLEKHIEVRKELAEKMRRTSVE
GST-Kinase (LRRK2 kinase domain fused to GST): residues 1879-2138 of Q5S007
UniProt O35382: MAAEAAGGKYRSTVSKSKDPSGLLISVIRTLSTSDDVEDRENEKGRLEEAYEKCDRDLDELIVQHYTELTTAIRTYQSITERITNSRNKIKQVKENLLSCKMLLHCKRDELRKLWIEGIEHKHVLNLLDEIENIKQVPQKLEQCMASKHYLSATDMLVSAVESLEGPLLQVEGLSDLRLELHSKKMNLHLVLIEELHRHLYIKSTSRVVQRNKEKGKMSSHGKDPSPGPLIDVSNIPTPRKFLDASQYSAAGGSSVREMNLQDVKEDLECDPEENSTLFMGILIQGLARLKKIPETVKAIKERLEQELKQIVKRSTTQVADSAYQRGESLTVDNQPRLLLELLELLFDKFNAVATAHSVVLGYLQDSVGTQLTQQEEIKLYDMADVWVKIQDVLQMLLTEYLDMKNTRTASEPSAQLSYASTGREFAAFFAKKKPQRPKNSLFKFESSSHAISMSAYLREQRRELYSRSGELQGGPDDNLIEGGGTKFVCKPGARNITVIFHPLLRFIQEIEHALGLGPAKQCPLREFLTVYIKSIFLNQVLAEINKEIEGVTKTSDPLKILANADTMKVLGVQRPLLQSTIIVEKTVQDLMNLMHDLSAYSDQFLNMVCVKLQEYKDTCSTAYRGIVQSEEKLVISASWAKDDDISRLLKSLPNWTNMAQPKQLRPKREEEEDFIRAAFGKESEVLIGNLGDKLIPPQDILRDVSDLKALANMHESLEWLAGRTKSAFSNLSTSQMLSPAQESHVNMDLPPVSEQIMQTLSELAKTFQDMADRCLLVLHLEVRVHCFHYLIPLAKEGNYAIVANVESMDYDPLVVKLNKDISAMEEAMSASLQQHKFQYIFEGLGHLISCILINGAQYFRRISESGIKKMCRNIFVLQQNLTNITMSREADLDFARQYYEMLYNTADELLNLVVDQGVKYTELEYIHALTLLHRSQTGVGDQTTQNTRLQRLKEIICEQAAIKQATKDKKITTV
UniProt Q96A65: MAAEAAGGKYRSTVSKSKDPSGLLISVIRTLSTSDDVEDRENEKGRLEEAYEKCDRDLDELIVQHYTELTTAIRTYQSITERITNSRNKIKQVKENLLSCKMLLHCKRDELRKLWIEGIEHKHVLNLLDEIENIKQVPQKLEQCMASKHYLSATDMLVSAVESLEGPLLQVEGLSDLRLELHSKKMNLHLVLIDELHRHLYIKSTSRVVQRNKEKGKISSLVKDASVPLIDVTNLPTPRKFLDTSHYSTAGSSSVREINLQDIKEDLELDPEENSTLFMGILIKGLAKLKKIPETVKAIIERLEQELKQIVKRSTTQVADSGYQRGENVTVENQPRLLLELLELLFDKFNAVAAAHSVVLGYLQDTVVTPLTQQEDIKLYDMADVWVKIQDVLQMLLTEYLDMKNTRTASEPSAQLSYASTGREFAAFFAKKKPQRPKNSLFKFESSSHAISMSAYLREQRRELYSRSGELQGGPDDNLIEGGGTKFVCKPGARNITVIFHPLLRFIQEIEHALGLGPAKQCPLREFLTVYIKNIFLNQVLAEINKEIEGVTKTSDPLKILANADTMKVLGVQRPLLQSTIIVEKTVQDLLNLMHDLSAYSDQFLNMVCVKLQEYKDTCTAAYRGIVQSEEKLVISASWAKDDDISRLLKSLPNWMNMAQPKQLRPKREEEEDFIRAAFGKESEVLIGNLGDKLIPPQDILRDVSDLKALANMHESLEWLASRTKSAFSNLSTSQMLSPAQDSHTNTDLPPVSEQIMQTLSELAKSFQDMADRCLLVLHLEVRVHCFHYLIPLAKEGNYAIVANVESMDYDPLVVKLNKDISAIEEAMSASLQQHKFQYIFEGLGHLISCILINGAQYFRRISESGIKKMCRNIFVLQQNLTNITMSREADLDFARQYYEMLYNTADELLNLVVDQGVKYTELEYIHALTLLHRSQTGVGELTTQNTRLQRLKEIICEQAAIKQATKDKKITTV
UniProt Q62824: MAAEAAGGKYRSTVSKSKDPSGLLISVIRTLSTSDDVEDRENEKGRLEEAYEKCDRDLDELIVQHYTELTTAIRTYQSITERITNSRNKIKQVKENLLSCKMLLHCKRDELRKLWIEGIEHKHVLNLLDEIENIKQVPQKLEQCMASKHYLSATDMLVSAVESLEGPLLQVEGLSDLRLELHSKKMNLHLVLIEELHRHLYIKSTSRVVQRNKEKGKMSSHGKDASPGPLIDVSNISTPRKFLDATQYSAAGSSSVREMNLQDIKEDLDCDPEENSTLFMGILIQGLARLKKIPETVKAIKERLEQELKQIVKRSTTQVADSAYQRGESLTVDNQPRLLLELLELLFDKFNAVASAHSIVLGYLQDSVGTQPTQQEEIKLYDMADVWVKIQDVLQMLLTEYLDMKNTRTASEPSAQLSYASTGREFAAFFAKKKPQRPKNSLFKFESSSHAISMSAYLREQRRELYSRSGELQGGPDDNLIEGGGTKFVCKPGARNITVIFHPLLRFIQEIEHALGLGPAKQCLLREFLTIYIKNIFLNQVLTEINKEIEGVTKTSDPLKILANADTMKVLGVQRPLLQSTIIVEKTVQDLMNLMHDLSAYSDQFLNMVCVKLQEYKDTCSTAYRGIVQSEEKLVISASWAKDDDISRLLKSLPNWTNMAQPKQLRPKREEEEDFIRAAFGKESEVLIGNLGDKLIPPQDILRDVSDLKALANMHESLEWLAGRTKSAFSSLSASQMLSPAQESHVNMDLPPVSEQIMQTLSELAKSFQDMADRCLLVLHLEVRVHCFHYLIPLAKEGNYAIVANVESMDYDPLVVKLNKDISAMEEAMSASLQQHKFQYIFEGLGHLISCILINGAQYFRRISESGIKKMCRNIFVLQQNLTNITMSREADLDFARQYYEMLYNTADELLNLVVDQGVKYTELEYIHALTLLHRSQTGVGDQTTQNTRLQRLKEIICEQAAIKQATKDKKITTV
UniProt O60645: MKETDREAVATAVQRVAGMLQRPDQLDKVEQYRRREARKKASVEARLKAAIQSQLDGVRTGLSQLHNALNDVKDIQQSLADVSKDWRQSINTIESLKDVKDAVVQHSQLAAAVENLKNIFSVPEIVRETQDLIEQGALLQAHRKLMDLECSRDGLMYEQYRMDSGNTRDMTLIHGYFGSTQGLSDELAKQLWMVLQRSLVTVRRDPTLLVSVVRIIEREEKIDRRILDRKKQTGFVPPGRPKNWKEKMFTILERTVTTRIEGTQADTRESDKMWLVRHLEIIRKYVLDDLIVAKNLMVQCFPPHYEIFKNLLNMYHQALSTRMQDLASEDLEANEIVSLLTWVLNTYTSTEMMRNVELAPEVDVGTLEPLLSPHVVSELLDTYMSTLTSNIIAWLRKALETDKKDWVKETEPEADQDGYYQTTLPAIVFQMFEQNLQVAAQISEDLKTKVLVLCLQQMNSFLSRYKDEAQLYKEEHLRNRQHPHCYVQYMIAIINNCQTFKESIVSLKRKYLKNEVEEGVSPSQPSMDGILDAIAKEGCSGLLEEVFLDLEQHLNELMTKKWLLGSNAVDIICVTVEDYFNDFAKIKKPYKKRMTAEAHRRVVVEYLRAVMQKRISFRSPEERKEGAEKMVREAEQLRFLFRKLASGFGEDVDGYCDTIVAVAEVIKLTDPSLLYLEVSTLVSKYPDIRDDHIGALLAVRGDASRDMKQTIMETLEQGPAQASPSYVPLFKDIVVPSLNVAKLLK

Experiments:
Myc-LRRK2 WT [1] = target: Myc-LRRK2 WT (UniProt Q5S007); test: co-IP; HEK293 co-transfected 48 h with Flag-ratSec8 and Myc-LRRK2 WT; NP40 lysis buffer (150 mM NaCl, 1% NP40, 20 mM Tris-HCl pH 7.5); IP with anti-Myc, blot with anti-Flag
[2] = target: Sec8 (endogenous, mouse brain) (mouse (endogenous in mouse brain)) (UniProt O35382); test: co-IP; mouse brain protein extracts (striatal tissue) of WT or LRRK2 knock-out mice; IP with anti-Sec8 or anti-IgG, blot with anti-LRRK2; endogenous proteins
Flag-hSec8 WT (human) [3] = target: Flag-hSec8 WT (human) (UniProt Q96A65); test: co-IP; HEK293 co-transfected 48 h with Flag-Sec8 (WT or deletion mutants) and Myc-LRRK2 (WT or deletion mutants); NP40 lysis buffer; IP with anti-Flag, blot with anti-Myc
Flag-hSec8 WT (human) [4] = target: Flag-hSec8 WT (human) (UniProt Q96A65); test: co-IP; HEK293 transfected 48 h with Flag-Sec8 alone or with Myc-LRRK2 (WT, G2019S, ΔKin or ΔWD40), with or without LRRK2 kinase inhibitor CZC-25146 (1 μM, 3 h before lysis); IP with anti-Flag, blot with anti-Exo70 or anti-Sec6 (endogenous proteins)
Myc-LRRK2 WT [5] = target: Myc-LRRK2 WT (UniProt Q5S007); test: cross-linking + co-IP; HEK293 transfected 48 h with Myc-LRRK2 WT; cells treated with 2 mM DSS for 30 min at room temperature before lysis in NP40 buffer; IP with anti-Myc, blot with anti-Sec8 (endogenous Sec8)
[6] = target: GST-Kinase (LRRK2 kinase domain fused to GST) (UniProt Q5S007); test: pull-down; 500 ng GST-LRRK2 domain on glutathione-Sepharose incubated with 5 mg mouse brain protein extract at 4 °C overnight (50 mM Tris-HCl pH 8.0, 150 mM NaCl, 1% NP-40); five washes; SDS-PAGE, colloidal Coomassie stain, band identified by MALDI mass spectrometry; only the target purified

binding (Myc-LRRK2 WT [1]): binds
Substance: Flag-ratSec8 (from UniProt Q62824 1-975)

binding [2]: binds
Substance: LRRK2 (endogenous, mouse brain) (from UniProt Q5S006 1-2527)

binding (Flag-hSec8 WT (human) [3]): binds
Substance: Myc-LRRK2 WT (from UniProt Q5S007 1-2527)

binding (Flag-hSec8 WT (human) [4]): binds weakly
Substance: Sec6 (endogenous, HEK293) (from UniProt O60645 1-745)

binding (Myc-LRRK2 WT [5]): binds
Substance: Sec8 (endogenous, HEK293) (from UniProt Q96A65 1-974)

binding [6]: binds
Substance: Sec8 (endogenous, mouse brain) (from UniProt O35382 1-975)
